In patent US9896481B2, “Modified mini-hepcidin peptides and methods of using thereof” (priority 2011, dated 2018):
Entries after “also recorded” stand apart in the source; their conditions may differ. For some assays here: At least one peptide structure holds a part that was inferred or is arguable (an end, a ring closure or a residue). For some assays here: At least one structure is not confirmed: it was looked up by name or label, or the drawing left a doubt. Non-standard residues stand in square brackets, D forms with d. Residues, ends and D or L forms follow the SMILES beside them. *: point of attachment. Chenodeoxycholyl = C[C@H](CCC(=O)*)[C@H]1CC[C@H]2[C@@H]3[C@H](O)C[C@@H]4C[C@H](O)CC[C@]4(C)[C@H]3CC[C@]12C; PEG12 = NCCOCCOCCOCCOCCOCCOCCOCCOCCOCCOCCOCCOCCC(=O)O

How the values were obtained:
[1] = biological target: T1, ferroportin tagged at the C-terminus with green fluorescent protein (Fpn-GFP) (Mus musculus, UniProt Q9JHI9); assay: Flow cytometry of ferroportin-GFP degradation in ECR293/Fpn-GFP cells; assay type: cell-based; details: Table 1; 24 h peptide treatment; 50% of maximal loss of fluorescence by Hep25; read-out: EC50 (the source's name)
T1 construct: expressed in transfected cells; host or cells: ECR293/Fpn-GFP (stably transfected, ponasterone-inducible)
T1 sequence (Q9JHI9 1-570): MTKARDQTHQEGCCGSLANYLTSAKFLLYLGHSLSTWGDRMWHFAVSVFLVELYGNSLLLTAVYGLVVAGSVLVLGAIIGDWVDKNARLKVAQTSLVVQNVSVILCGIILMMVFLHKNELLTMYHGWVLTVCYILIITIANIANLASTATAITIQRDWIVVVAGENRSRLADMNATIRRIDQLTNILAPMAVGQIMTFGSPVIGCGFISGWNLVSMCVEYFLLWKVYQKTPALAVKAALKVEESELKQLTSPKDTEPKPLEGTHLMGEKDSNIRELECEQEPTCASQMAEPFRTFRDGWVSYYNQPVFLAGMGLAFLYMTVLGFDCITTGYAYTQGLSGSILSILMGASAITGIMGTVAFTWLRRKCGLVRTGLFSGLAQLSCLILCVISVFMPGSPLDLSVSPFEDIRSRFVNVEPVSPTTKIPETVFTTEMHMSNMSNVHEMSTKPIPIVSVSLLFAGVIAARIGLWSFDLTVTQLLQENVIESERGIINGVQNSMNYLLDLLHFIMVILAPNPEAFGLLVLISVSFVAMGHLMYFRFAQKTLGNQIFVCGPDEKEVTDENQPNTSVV
Procedure: In vitro activity may be measured by the dose-dependent loss of fluorescence of cells engineered to display ferroportin fused to green fluorescent protein as in Nemeth et al. (2006) Blood 107:328-33. Aliquots of cells are incubated for 24 hours with graded concentrations of a reference preparation of Hep25 or a mini-hepcidin. As provided herein, the EC50 values are provided as the concentration of a given compound (e.g. peptide) that elicits 50% of the maximal loss of fluorescence generated by the reference Hep25 preparation.
Mutational studies indicate that C326, the cysteine residue at position 326 of human ferroportin, is the critical residue involved in binding hepcidin. Thus, various N-terminal fragments of Hep25 containing a thiol, i.e. Hep 4-7, Hep3-7, Hep3-8, Hep3-9, Hep1-7, Hep1-8, Hep1-9, and Hep1-10 C7A, were chemically synthesized, refolded and their activities relative to Hep25 were assayed using flow-cytometric quantitation of the ferroportin-GFP degradation, iron efflux estimation based on measurements of cellular ferritin, and radioisotopic iron efflux studies.
The activity of peptides of the present invention was measured by flow cytometry as previously described. […] Cells were then trypsinized and resuspended at 1×10^6 cells/ml, and the intensity of green fluorescence was analyzed by flow cytometry. […]

Hamp1-/- mice [2] = assay: Single subcutaneous injection of PR65 in iron-loaded hepcidin knockout mice; assay type: in vivo, mouse; details: for decrease in serum iron / reduction in serum iron: after 24 hours
Hamp1-/- mice [3] = assay: Prevention study: 2 weeks daily PR65 in iron-depleted hepcidin knockout mice on iron-loading diet
wild-type C57BL/6 mice = assay: PR65 in wild-type mice, serum iron 4 hours after injection; assay type: in vivo, mouse
Hamp1-/- mice [4] = assay: Treatment study: 2 weeks daily PR65 in iron-overloaded hepcidin knockout mice; assay type: in vivo, mouse; details: 50 nmoles daily s.c.
Procedure: To test the effect of PR65 on iron-loaded Hamp1^−/− mice (“treatment” studies), male mice were kept on the standard diet for their entire lifespan. Beginning at 12-14 weeks of age, 50 nmoles of PR65 or solvent was injected daily by the subcutaneous route for 2 weeks.
To assess the potential of mini-hepcidins as a standalone treatment for iron overload in subjects, 12 week old iron-overloaded hepcidin knockout mice were injected with 50 nmoles of PR65 daily for 14 days. […] In contrast to mice that were iron-depleted before PR65 administration, in mice with established iron overload serum iron levels were not decreased 24 hours after the last dose compared to solvent-treated mice (p=0.682) (FIG. 15B). […] The less than 24 hours duration of the hypoferremic effect of each 50 nmoles dose may have been due to the severe iron overload of the hepcidin knockout mice at this age. Accumulated hepatocyte iron could stimulate ferroportin synthesis and iron efflux from hepatocytes into plasma by relieving the inhibition of ferroportin translation by iron-regulatory proteins (IRPs) interacting with 5′ iron-regulatory element (5′ IRE) in the ferroportin mRNA, and possibly by other mechanisms.

mouse = assay: Activity at 20 nmoles/mouse: serum iron 4 hours after injection versus solvent (Tables 3 and 4); assay type: in vivo; set-up: key: Y: “Active” means that the injection of the compound resulted in statistically significant (p < 0.05) lowering of serum iron compared to solvent injection when measured 4 hours after administration; Y*: detectable and reproducible activity but at least 50% lower than other active compounds in Table 4; details: Table 4, serum iron 4 h after administration
C57/Bl6J mice = assay: Serum iron assay in mice on low-iron diet, 4 hours after peptide; assay type: in vivo, mouse; set-up: key to active in vivo: *active in vivo
Procedure: The decrease in serum iron after peptide administration is the principal measure of hepcidin activity. Thus, as provided herein, the hepcidin activity of selected peptides of the present invention were assayed in vivo by measuring serum iron in test subjects. Briefly, C57/Bl6J mice were maintained on NIH 31 rodent diet (333 parts per million (ppm) iron; Harlan Teklad, Indianapolis, Ind.). Two weeks before the experiment, the mice were switched to a diet containing about 2-4 ppm iron (Harlan Teklad, Indianapolis, Ind.) in order to suppress endogenous hepcidin. Peptide stocks were diluted to desired concentrations in sterile phosphate buffered saline (PBS) or other diluents as described next. Mice were subjected to the following treatments: (a) Injected intraperitoneally either with 100 μl PBS (control) or with 50 μg peptide in 100 μl PBS; (b) Injected with 100 μl of peptide (or PBS) mixed with 500 μg empty liposomes COATSOME EL series (NOF, Tokyo, Japan) (prepared as per manufacturer's recommendation); (c) Injected with 100 μl peptides (or PBS) solubilized with SL220 solubilization agent (NOF, Tokyo, Japan); (d) Gavaged with 250 μl of peptide (or PBS) in 1× solvent (Cremophor EL (Sigma)/ethanol/PBS; (12.5:12.5:75)). Mice were sacrificed 4 hours later, blood was collected by cardiac puncture, and serum was separated using MICROTAINER tubes (Becton Dickinson, Franklin Lakes, N.J.). Serum iron was determined by using a colorimetric assay (Diagnostic Chemicals, Oxford, Conn.), which was modified for the microplate format so that 10 μl serum was used per measurement. The results were expressed as the percentage of decrease in serum iron when compared with the average value of serum iron levels in PBS-treated mice.

[5] = 100 nmoles s.c., during 48 hours
[6] = 20 nmoles per day s.c., 2 weeks
[7] = 50 nmoles per day s.c., 2 weeks
[8] = 100 nmoles per day s.c., 2 weeks
[9] = Table 5, 50 nmoles, calculated with estimated organ mass

Compound: CC[C@@H](C)[C@@H](NC(=O)[C@@H](Cc1ccccc1)NC(=O)CCOCCOCCOCCOCCOCCOCCOCCOCCOCCOCCOCCOCCNC(=O)[C@@H](CC(=O)O)NC(=O)CC[C@@H](C)[C@H]1CC[C@H]2[C@@H]3[C@H](O)C[C@@H]4C[C@H](O)CC[C@]4(C)[C@H]3CC[C@]12C)C(=O)N[C@H](CS)C(=O)N[C@@H](C(=O)N1CCC[C@@H]1C(=O)N[C@H](Cc1ccccc1)C(=O)N[C@H](Cc1c[nH]cn1)C(=O)N[C@@H](C(=O)N[C@H](CC(=O)O)C(N)=O)[C@H](C)O)[C@H](C)CC [PR23] (Chenodeoxycholyl-[dD][PEG12][dF][dI][dC][dI][dP][dF][dH][dT][dD]-NH2)
- DC50 [1]: 100 nM

Compound: CCCCCCCCCCCCCCCC(=O)NCCCOCCOCCOCCCNC(=O)C[C@H](Cc1ccccc1)NC(=O)[C@H](CCCNC(=N)N)NC(=O)[C@H](CS)NC(=O)[C@H](CCCNC(=N)N)NC(=O)C[C@@H]1CCCN1C(=O)[C@@H](NC(=O)[C@H](Cc1c[nH]cn1)NC(=O)[C@@H](NC(=O)CNCC(=O)O)[C@@H](C)O)C(c1ccccc1)c1ccccc1 [PR65]
- decrease in serum iron (Hamp1-/- mice [2]; 20 nmoles s.c.): 15%
- decrease in serum iron (Hamp1-/- mice [2]; 50 nmoles s.c.): 10%
- duodenal enterocyte iron (enhanced Perls stain) (Hamp1-/- mice [2]; 100 nmoles s.c., 12-24 hours): iron accumulated within enterocytes
- duodenal enterocyte iron (enhanced Perls stain) (Hamp1-/- mice [2]; 100 nmoles s.c., 48 hours): iron was no longer retained in enterocytes
- reduction in serum iron (Hamp1-/- mice [2]; 100 nmoles s.c., dose-response): 85%
- liver iron content (enhanced Perls stain) (Hamp1-/- mice [2]; [5]): did not visibly change
- spleen iron accumulation (enhanced Perls stain) (Hamp1-/- mice [2]; [5]): not observed
- maximal drop in serum Fe (Hamp1-/- mice [2]; 100 nmoles s.c., time course, 12 hours): 88%
- suppression of serum Fe (Hamp1-/- mice [2]; 100 nmoles s.c., time course, 24 hours): 82%
- serum Fe (Hamp1-/- mice [2]; 100 nmoles s.c., time course, 48 hours): returned to solvent control levels
- reduction in serum iron (Hamp1-/- mice [2]; 200 nmoles s.c.): 95%
- serum iron (Hamp1-/- mice [3]; 20 nmoles daily s.c., 2 weeks): did not change
- drop in heart iron concentration (Hamp1-/- mice [3]; [6]): 33%
- less liver iron than solvent-treated controls (Hamp1-/- mice [3]; [6]): 76%
- decrease in serum iron (Hamp1-/- mice [3]; [7]): 69%
- drop in heart iron concentration (Hamp1-/- mice [3]; [7]): 60%
- less liver iron than solvent-treated controls (Hamp1-/- mice [3]; [7]): 53%
- liver iron stores (Perls stain) versus baseline (Hamp1-/- mice [3]; 100 nmole dose): even lower than baseline
- heart iron staining (Perls stain) (Hamp1-/- mice [3]; 100 nmoles): complete lack of iron staining
- decrease in serum iron (Hamp1-/- mice [3]; [8]): 83%
- drop in heart iron concentration (Hamp1-/- mice [3]; [8]): 47%
- less liver iron than solvent-treated controls (Hamp1-/- mice [3]; [8]): 68%
- liver iron compared to iron-depleted baseline group (Hamp1-/- mice [3]; 20, 50 and 100 nmoles per day): no statistically significant increases
- liver iron stores (Perls stain) versus baseline (Hamp1-/- mice [3]; 20 and 50 nmoles groups): did not increase from baseline
- iron in duodenal enterocytes (Perls stain) (Hamp1-/- mice [3]; PR65-treated mice): iron retention in the duodenal enterocytes
- Hemoglobin (Hamp1-/- mice [3]; Table 5, 50 nmoles): Hemoglobin = 11.5 g/dl
- Liver iron concentration (Hamp1-/- mice [3]; Table 5, 50 nmoles): Liver iron concentration = 8 μmoles/g
- Spleen iron concentration (Hamp1-/- mice [3]; Table 5, 50 nmoles): Spleen iron concentration = 30 μmoles/g
- Total organ iron (mg), total (Hamp1-/- mice [3]; Table 5, 50 nmoles): 1.2 mg
- decrease of total organ iron versus solvent treatment (Hamp1-/- mice [3]; Table 5, 50 nmoles): 36%
- Total organ iron (mg), hemoglobin (Hamp1-/- mice [3]; Table 5, 50 nmoles, calculated with estimated blood volume): 0.5 mg
- Total organ iron (mg), liver (Hamp1-/- mice [3]; [9]): 0.6 mg
- Total organ iron (mg), spleen (Hamp1-/- mice [3]; [9]): 0.1 mg
- iron in the red pulp of the spleen (Perls stain) (Hamp1-/- mice [3]; all dose groups): Significant accumulation of iron
- iron overload in mouse hemochromatosis model (Hamp1-/- mice [3]; daily administration): prevented iron overload
- activity with subcutaneous as compared to intraperitoneal administration (wild-type C57BL/6 mice; 20 nmoles, FIG. 10C): retained full activity
- molar bioactivity after intraperitoneal injection (wild-type C57BL/6 mice; FIG. 10B): comparable to that of native hepcidin
- heart iron (in words) (Hamp1-/- mice [4]; 2 weeks, FIG. 15D): tended to decrease
- decrease in heart iron concentration (Hamp1-/- mice [4]; 14 days): 24%
- iron in spleen and duodenum (enhanced Perls staining) (Hamp1-/- mice [4]; 14 days): iron retention in the spleen and duodenum
- serum iron levels 24 hours after the last dose compared to solvent (Hamp1-/- mice [4]; 14 days): not decreased; also recorded: similar
- Active @ 20 nmoles/mouse IP (mouse; intraperitoneal): Y
- Active @ 20 nmoles/mouse SQ (mouse; subcutaneous): Y

Compound: CC[C@@H](C)[C@@H](NC(=O)[C@H](N)Cc1ccccc1)C(=O)N[C@H](CS)C(=O)N[C@@H](C(=O)N1CCC[C@@H]1C(=O)N[C@H](Cc1ccccc1)C(=O)N[C@H](Cc1c[nH]cn1)C(N)=O)[C@H](C)CC [riHep7ΔDT] (H-[dF][dI][dC][dI][dP][dF][dH]-NH2; N-terminus assumed)
- serum iron (C57/Bl6J mice; 20 nmoles i.p. in PBS): slightly but not significantly reduced
- serum iron (C57/Bl6J mice; 200 nmoles i.p. in PBS): significantly lower than those achieved after injection of PBS
- active in vivo (C57/Bl6J mice; asterisk at the EC50 value of Table 1): *
